Results deposited as PubChem BioAssay AID1159579 (Peter MacCallum Cancer Centre, 2015)

Screen: 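Retest candidate lymphatic endothelial migration regulators using several independent siRNAs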 (follow-up of hits)
Cell system: human dermal lymphatic endothelial cells
Reagent: single siRNA against human genes, 25 nM
Measured: 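High content images of wound closure area and cell nuclei counts, each the average of two wells, expressed against mock transfection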
Scale: migration relative to mock: higher = more migration into the scratch; mean nuclei count: higher = more cells remaining
Rule for the call: 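Called active when the migration ratio is 0.6 or lower (impaired) or 1.3 or higher (accelerated), but inactive whenever the mean nuclei count falls under 3300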
Calls: active = migration changed (impaired or accelerated); inactive = no migration change, or too few cells
In all, the deposit lists about 2,000 reagents; this is a random part of them. In the full data, 549 (27%) were called active. 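Some migration ratios are negative; siRNAs with too few cells are inactive whatever their migration ratio.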 Unmarked entries are inactive. The numbers tell different reagents against one gene apart. Further read-outs or replicates are left out here. Not given: the time to read-out.

Gene | reagent | migration relative to mock | mean nuclei count
MYBL2 (MYB proto-oncogene like 2) | 1 | 1.12 | 6166
MYBL2 (MYB proto-oncogene like 2) | 2 | 1.02 | 6572
MYBL2 (MYB proto-oncogene like 2) | 3 | 1.04 | 5798
MYBL2 (MYB proto-oncogene like 2) | 4 | 0.14 (active) | 5422
SCN1B (sodium voltage-gated channel beta subunit 1) | 1 | 0.66 | 5548
SCN1B (sodium voltage-gated channel beta subunit 1) | 2 | 0.54 (active) | 4469
SCN1B (sodium voltage-gated channel beta subunit 1) | 3 | 1.09 | 5504
SCN1B (sodium voltage-gated channel beta subunit 1) | 4 | 0.35 (active) | 3422
FLCN (folliculin) | 1 | 0.48 (active) | 5046
FLCN (folliculin) | 2 | 0.56 (active) | 3970
FLCN (folliculin) | 3 | 1.07 | 5158
FLCN (folliculin) | 4 | 0.42 (active) | 4020
U2AF1L4 (U2 small nuclear RNA auxiliary factor 1 like 4) | 1 | 1.04 | 6021
U2AF1L4 (U2 small nuclear RNA auxiliary factor 1 like 4) | 2 | 0.55 (active) | 5206
U2AF1L4 (U2 small nuclear RNA auxiliary factor 1 like 4) | 3 | 0.72 | 4995
U2AF1L4 (U2 small nuclear RNA auxiliary factor 1 like 4) | 4 | 0.78 | 5496
ABCC3 (ATP binding cassette subfamily C member 3) | 1 | 0.38 (active) | 6199
ABCC3 (ATP binding cassette subfamily C member 3) | 2 | 0.46 (active) | 5426
ABCC3 (ATP binding cassette subfamily C member 3) | 3 | 0.91 | 6446
ABCC3 (ATP binding cassette subfamily C member 3) | 4 | 0.62 | 5728
UPK3A (uroplakin 3A) | 1 | 0.56 (active) | 5174
UPK3A (uroplakin 3A) | 2 | 0.83 | 6545
UPK3A (uroplakin 3A) | 3 | 0.93 | 6262
UPK3A (uroplakin 3A) | 4 | 0.86 | 5877

An excerpt of the results above, as a working copy:
Gene | reagent | migration relative to mock | mean nuclei count
U2AF1L4 (U2 small nuclear RNA auxiliary factor 1 like 4) | 2 | 0.55 (active) | 5206
U2AF1L4 (U2 small nuclear RNA auxiliary factor 1 like 4) | 3 | 0.72 | 4995
U2AF1L4 (U2 small nuclear RNA auxiliary factor 1 like 4) | 4 | 0.78 | 5496
ABCC3 (ATP binding cassette subfamily C member 3) | 1 | 0.38 (active) | 6199
ABCC3 (ATP binding cassette subfamily C member 3) | 2 | 0.46 (active) | 5426

More results:
Gene | reagent | migration relative to mock | mean nuclei count
PTH2 (parathyroid hormone 2) | 1 | 0.36 (active) | 5004
PTH2 (parathyroid hormone 2) | 2 | 0.57 (active) | 4780
PTH2 (parathyroid hormone 2) | 3 | 0.74 | 4540
PTH2 (parathyroid hormone 2) | 4 | 0.46 (active) | 5472
ALS2 (alsin Rho guanine nucleotide exchange factor ALS2) | 1 | 0.71 | 5028
ALS2 (alsin Rho guanine nucleotide exchange factor ALS2) | 2 | 0.94 | 5357
ALS2 (alsin Rho guanine nucleotide exchange factor ALS2) | 3 | 0.65 | 5814
ALS2 (alsin Rho guanine nucleotide exchange factor ALS2) | 4 | 0.72 | 4740
ATF2 (activating transcription factor 2) | 1 | 0.85 | 6556
ATF2 (activating transcription factor 2) | 2 | 0.72 | 5988
ATF2 (activating transcription factor 2) | 3 | 0.73 | 5489
ATF2 (activating transcription factor 2) | 4 | 0.86 | 6312
PARP11 (poly(ADP-ribose) polymerase family member 11) | 1 | 0.79 | 7228
PARP11 (poly(ADP-ribose) polymerase family member 11) | 2 | 0.97 | 7332
PARP11 (poly(ADP-ribose) polymerase family member 11) | 3 | 0.77 | 6778
PARP11 (poly(ADP-ribose) polymerase family member 11) | 4 | 1.18 | 5790
NODAL (nodal growth differentiation factor) | 1 | 1.06 | 6104
NODAL (nodal growth differentiation factor) | 2 | 0.75 | 5890
NODAL (nodal growth differentiation factor) | 3 | 0.76 | 4246
NODAL (nodal growth differentiation factor) | 4 | -0.52 | 2674
CMC1 (C-X9-C motif containing 1) | 1 | 0.83 | 5149
CMC1 (C-X9-C motif containing 1) | 2 | 0.94 | 4342
CMC1 (C-X9-C motif containing 1) | 3 | 0.9 | 4924
CMC1 (C-X9-C motif containing 1) | 4 | 0.22 (active) | 3761
CD200R1L (CD200 receptor 1 like) | 1 | 0.67 | 6222
CD200R1L (CD200 receptor 1 like) | 2 | 0.81 | 5620
CD200R1L (CD200 receptor 1 like) | 3 | 0.98 | 6197
CD200R1L (CD200 receptor 1 like) | 4 | 1.15 | 5706
NKD1 (NKD inhibitor of Wnt signaling pathway 1) | 1 | 0.68 | 6475
NKD1 (NKD inhibitor of Wnt signaling pathway 1) | 2 | 0.92 | 6401
NKD1 (NKD inhibitor of Wnt signaling pathway 1) | 3 | 0.98 | 6624
NKD1 (NKD inhibitor of Wnt signaling pathway 1) | 4 | 0.95 | 5910
ZNF217 (zinc finger protein 217) | 1 | 0.84 | 5418
ZNF217 (zinc finger protein 217) | 2 | 1.14 | 5228
ZNF217 (zinc finger protein 217) | 3 | 0.67 | 3826
ZNF217 (zinc finger protein 217) | 4 | 0.73 | 5080
SEPTIN4 (septin 4) | 1 | 0.82 | 6215
SEPTIN4 (septin 4) | 2 | 0.82 | 4972
SEPTIN4 (septin 4) | 3 | 0.2 (active) | 4354
SEPTIN4 (septin 4) | 4 | -0.2 (active) | 3320
SGK3 (serum/glucocorticoid regulated kinase family member 3) | 1 | 0.44 (active) | 5882
SGK3 (serum/glucocorticoid regulated kinase family member 3) | 2 | 0.9 | 6423
SGK3 (serum/glucocorticoid regulated kinase family member 3) | 3 | 0.58 (active) | 6376
SGK3 (serum/glucocorticoid regulated kinase family member 3) | 4 | 0.62 | 5891
